The whole screen tested about 1,100 compounds, of which about 150 (14%) were called active. The shares of active, inactive and inconclusive entries below differ from those in the screen.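 Rule for the calls: active = inhibition above about 50% in both repeat tests (limit read from the data); inconclusive = one repeat under the set limit, the other over it; inactive = both repeats under the set limit.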
Test: Leishmania major promastigote growth inhibition, confirmation, 1 µM repeat of primary hits (AID 1258)
Conditions: L. major promastigote growth, resazurin fluorescence, 48 h; at 1 µM; active compounds read high
Summary of the method: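 Material: Leishmania major promastigote parasites; amount: 5,000 promastigotes/well; buffer or medium: M199, 10% heat-inactivated FBS; compound dosing: single dose of 1 µM per compound, retest of primary hits; times: 44 h compound exposure plus 4 h dye step, both 28 °C; read-out basis: parasite viability inhibition versus plate controls; benchmarks: DMSO MAX/MIN, tamoxifen reference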

Compound | inhibition
Cc1cccc(OP(=O)(Nc2cccnc2)Oc2cccc(C)c2)c1 | inconclusive: 47.8%
CCC1(CC)C(=O)N(Cc2ccccc2)C(=O)N(Cc2ccccc2)C1=O | inconclusive: 54.3%
